Assay results published in PMC7468482.
No constants are given. Whether binding was seen depends on the method and setting.

B1: PEAPOD 1 (PPD1), wild type, Q7XA73 1-313 (protein)
chain: MDVGVSPAKSILAKPLKLLTEEDISQLTREDCRKFLKDKGMRRPSWNKSQAIQQVLSLKALYEPGDDSGAGIFRKILVSQPVNPPRVTTTLIEPSNELEACGRVSYPEDNGACHRMDSPRSAEFSGGSGHFVSEKDGHKTTISPRSPAETSELVGQMTIFYSGKVNVYDGIPPEKARSIMHFAANPIDLPENGIFASSRMISKLISKEKMMELPQKGLEKANSSRDSGMEGQANRKVSLQRYREKRKDRKFSKAKKCPGVASSSLEMFLNCQPRMKAAYSQNLGCTGSPLHSQSPESQTKSPNLSVDLNSEGI
B2: PEAPOD 2 (PPD2), wild type, Q8GY55 1-315 (protein)
chain: MDVGVTTAKSILEKPLKLLTEEDISQLTREDCRKFLKEKGMRRPSWNKSQAIQQVLSLKALYEPGDDSGAGILRKILVSQPPNPPRVTTTLIEPRNELEACGRIPLQEDDGACHRRDSPRSAEFSGSSGQFVADKDSHKTVSVSPRSPAETNAVVGQMTIFYSGKVNVYDGVPPEKARSIMHFAANPIDLPENGIFASSRMISKPMSKEKMVELPQYGLEKAPASRDSDVEGQANRKVSLQRYLEKRKDRRFSKTKKAPGVASSSLEMFLNRQPRMNAAYSQNLSGTGHCESPENQTKSPNISVDLNSDLNSEDN

Target: MYC3 transcription factor (Arabidopsis thaliana), Q9FIP9
Assay: two-hybrid; GAL4 system, S. cerevisiae PJ69-4A co-transformed with bait and prey (pGAL424gate, pGBT9gate); 10- or 100-fold dilutions dropped on SD-Leu-Trp (control) and SD-Leu-Trp-His (selective); cultures grown at 30°C
Conditions: remark: other sources report otherwise

Row | Binder | binding
1 | B1 | no binding
2 | B2 | no binding
